Measured values published in paper PMC7731434, “Development and Validation of a Bioanalytical Method for 3′- and 6′-Sialyllactose in Minipig Liver and Kidney Using Liquid Chromatography-Tandem Mass Spectrometry and Its Application to Analysis of Tissue Distribution” (Molecules, 2020).

Experiment: Endogenous (background) concentration of SL in blank authentic minipig tissue
Conditions: for Background concentration in blank authentic matrix: measured at initiation of the stability test; for Endogenous (background) concentration in authentic matrix: x-intercept of standard-addition calibration curve (parallelism test)

| Structure (SMILES) | Background concentration in blank authentic matrix (kidney) | Endogenous (background) concentration in authentic matrix (kidney) | Background concentration in blank authentic matrix (liver) | Endogenous (background) concentration in authentic matrix (liver) |
| --- | --- | --- | --- | --- |
| CC(=O)N[C@H]1[C@H]([C@H](O)[C@H](O)CO)O[C@@](O[C@H]2[C@@H](O)[C@@H](CO)O[C@@H](O[C@H]3[C@H](O)[C@@H](O)[C@H](O)O[C@@H]3CO)[C@@H]2O)(C(=O)O)C[C@@H]1O [3′-SL, 3′-sialyllactose] | 62.1 ng/g | 66.3 ng/g | 339 ng/g | 324 ng/g |
| CC(=O)NC1C(O)CC(OCC2OC(OC3C(CO)OC(O)C(O)C3O)C(O)C(O)C2O)(C(=O)O)OC1C(O)C(O)CO (centres unmarked) [6′-SL, 6′-sialyllactose] | 55.6 ng/g | 58.9 ng/g | 118 ng/g | 117 ng/g |
